One assay has as its target HA-tagged DDX5 (UniProt P17844). As to the kind of experiment: co-IP; HEK293T or HeLa cells transfected with epitope-tagged DDX5 or SF2; lysis in 250 mM NaCl, 50 mM Hepes pH 7.4, 1 mM EDTA, 1% NP-40; anti-Flag or anti-HA beads, blot for Flag or HA.
Assay [1] concerns the target RNA helicase DDX5 (human (endogenous in NHEKs)) (UniProt P17844). As to the kind of experiment: co-IP; DDX5 antibody immunoprecipitate from total NHEK lysates, immunoblot with DDX5 and SF2 antibodies. (In general: Immunoblotting shows a protein as a band on a membrane.)

Amino acid sequences for entries named in this document (tags omitted).
UniProt P17844: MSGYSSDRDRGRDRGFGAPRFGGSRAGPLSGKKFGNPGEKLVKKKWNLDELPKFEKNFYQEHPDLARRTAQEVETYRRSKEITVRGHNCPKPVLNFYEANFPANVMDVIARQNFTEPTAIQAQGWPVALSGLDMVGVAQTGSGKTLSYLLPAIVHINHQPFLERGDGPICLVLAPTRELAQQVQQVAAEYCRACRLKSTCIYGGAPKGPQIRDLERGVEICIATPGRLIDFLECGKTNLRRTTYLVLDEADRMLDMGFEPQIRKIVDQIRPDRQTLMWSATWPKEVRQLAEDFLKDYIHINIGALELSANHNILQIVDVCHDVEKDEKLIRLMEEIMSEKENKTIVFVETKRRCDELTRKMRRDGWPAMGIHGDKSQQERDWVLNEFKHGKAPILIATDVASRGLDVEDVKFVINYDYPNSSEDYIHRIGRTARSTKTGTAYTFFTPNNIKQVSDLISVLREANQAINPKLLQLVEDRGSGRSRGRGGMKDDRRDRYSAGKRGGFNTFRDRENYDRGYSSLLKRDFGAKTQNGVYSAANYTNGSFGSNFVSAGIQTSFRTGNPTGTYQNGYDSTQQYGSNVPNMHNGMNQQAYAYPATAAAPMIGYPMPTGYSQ
UniProt Q07955: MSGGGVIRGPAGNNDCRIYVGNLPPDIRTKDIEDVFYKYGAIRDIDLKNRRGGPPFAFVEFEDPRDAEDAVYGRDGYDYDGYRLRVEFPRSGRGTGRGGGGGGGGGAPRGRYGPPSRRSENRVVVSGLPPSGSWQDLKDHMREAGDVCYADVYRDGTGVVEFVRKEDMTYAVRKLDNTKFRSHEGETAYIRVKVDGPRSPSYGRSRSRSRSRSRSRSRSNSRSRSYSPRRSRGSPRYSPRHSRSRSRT

Results are given in words; binding and its absence hold for the method and conditions named. In cells and extracts the contact can be indirect. Some entries that bind do so weakly or less than the wild type.

In the case of “Flag-tagged SF2 (from UniProt Q07955 1-248)”, the binding entry with HA-tagged DDX5 is listed as “binds”. With “splicing factor SF2 (also known as SRSF1) (from UniProt Q07955 1-248)”, in assay [1], the binding result is given as “binds”.

Values taken from PMC9663298.
